Measurements published in PMC5872389.

The chains behind the UniProt entries cited, without tags or fusion partners. Where a name states a change or a piece, a line headed by the entry shows the natural chain unless it says otherwise. Residues count along the entry.
UniProt Q8WTV0: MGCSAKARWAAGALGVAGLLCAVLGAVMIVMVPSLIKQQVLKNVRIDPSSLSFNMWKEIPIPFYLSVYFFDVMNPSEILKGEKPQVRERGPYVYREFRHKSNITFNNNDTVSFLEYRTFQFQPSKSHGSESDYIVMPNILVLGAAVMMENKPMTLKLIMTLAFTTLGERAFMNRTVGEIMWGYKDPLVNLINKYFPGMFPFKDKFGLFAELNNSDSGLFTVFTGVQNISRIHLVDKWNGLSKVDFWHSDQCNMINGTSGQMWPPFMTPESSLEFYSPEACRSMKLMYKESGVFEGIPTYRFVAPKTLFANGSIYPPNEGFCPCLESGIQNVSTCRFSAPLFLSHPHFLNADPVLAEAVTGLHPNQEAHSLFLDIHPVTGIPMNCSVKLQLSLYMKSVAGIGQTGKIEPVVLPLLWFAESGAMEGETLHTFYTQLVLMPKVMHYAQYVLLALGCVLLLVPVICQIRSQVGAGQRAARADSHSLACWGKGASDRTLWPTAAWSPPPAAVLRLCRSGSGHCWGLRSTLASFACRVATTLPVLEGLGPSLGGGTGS
UniProt P02769, residues 25-607: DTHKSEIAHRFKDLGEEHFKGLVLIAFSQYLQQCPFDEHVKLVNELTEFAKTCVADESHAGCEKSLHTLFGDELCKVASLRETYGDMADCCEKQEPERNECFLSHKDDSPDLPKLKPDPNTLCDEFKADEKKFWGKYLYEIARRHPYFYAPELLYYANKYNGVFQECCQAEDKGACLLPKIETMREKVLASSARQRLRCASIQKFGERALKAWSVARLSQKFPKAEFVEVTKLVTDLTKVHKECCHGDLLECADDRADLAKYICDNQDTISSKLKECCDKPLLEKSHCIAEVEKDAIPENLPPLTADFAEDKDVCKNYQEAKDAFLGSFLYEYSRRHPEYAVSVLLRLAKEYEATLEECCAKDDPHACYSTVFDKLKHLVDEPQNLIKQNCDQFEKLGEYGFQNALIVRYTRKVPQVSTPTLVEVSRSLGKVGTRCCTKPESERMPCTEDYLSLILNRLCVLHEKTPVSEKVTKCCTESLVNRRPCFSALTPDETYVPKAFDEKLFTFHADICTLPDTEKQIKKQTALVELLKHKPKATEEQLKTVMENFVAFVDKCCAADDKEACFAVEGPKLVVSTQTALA

Target: Recombinant human SR-B1 (human) (UniProt Q8WTV0)
Assay: atomic force microscopy imaging; receptor (100 μl CD36 or SR-B1 at 0.1 μg/ml) immobilised as a monolayer on glutaraldehyde-APTES mica, blocked with L-glycine, incubated with 100 μl lipoproteins at 0.1 μg/ml (or BSA), washed with PBS; tapping mode in PBS, 1 μm × 1 μm scans; bound particles counted; both purified

binding: no binding
Substance: Bovine serum albumin (from UniProt P02769 25-607)

These are yes or no findings as the source states them, for the method shown.
